No constants are given. Whether binding was seen depends on the method and setting.
Legend:
[1] = molecular target: His-tagged IZUMO1 ectodomain (bait in pull-down) (human) (UniProt Q8IYV9); assay: pull-down
[2] = molecular target: SPACA6 ectodomain (Sperm Acrosome Membrane-Associated protein 6, residues 27-246) (human) (UniProt W5XKT8); assay: SEC-MALS

Chains of the proteins cited; added tags and fusions are not shown. Residues count along the entry.
UniProt Q8IYV9, residues 22-292: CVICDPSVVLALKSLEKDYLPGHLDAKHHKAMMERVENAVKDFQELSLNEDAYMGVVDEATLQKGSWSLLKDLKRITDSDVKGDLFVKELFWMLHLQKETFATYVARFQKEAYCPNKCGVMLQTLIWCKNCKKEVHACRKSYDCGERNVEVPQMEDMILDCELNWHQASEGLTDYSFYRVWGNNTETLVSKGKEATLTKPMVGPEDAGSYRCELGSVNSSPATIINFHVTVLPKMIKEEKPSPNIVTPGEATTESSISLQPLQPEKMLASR

B1: SPACA6 ectodomain (Sperm Acrosome Membrane-Associated protein 6, residues 27-246) (domain or fragment, UniProt W5XKT8-1 27-246)
chain: CLLCFTTYSERLRICQMFVGMRSPKLEECEEAFTAAFQGLSDTEINYDERSHLHDTFTQMTHALQELAAAQGSFEVAFPDAAEKMKKVITQLKEAQACIPPCGLQEFARRFLCSGCYSRVCDLPLDCPVQDVTVTRGDQAMFSCIVNFQLPKEEITYSWKFAGGGLRTQDLSYFRDMPRAEGYLARIRPAQLTHRGTFSCVIKQDQRPLARLYFFLNVTG
modifications: one N-linked glycan (fully glycosylated)
Q: With B1 as the binder, how does the binding [1] read?
A: Its binding is “no binding”.

Q: What about the binding [2] of the same binder?
A: The binding was “no binding (tested: 1.2 mg mL^-1)”.

From doi:10.1101/2022.03.23.484325
